# Article PMC7819943, “Rice protein-binding microarrays: a tool to detect cis-acting elements near promoter regions in rice”
# Protein sequences, listed by entry. Tags and fused reporters are not part of them.
# UniProt Q0JBA9, entry or part of it: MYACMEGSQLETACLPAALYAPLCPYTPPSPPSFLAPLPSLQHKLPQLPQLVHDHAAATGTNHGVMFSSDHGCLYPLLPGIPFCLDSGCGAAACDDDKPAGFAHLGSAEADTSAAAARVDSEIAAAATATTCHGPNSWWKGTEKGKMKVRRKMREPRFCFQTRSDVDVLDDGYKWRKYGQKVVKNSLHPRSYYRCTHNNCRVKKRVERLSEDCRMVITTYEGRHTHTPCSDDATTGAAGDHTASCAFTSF
# Some of the results follow.
# Biological target: OsWRKY34 (Oryza sativa, UniProt Q0JBA9 1-250)
# Test: protein-binding microarray (RPBM); PBS, 2% BSA, 51.3 ng/ul salmon testes DNA, 50 uM zinc acetate, 200 nM TF, 25 C, 1 h; high values mean tight binding
# Details: protein: recombinant; tags: N-terminal polyhistidine and DsRed monomer fusion (pET32a); label: CyDye5-dUTP incorporated in the synthesized complementary strand; 3' TTTTT single-stranded linker to array surface; dsDNA, one strand shown
# Outline: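 For the binding signal, per-feature fluorescence intensity was read in arbitrary units on an Axon 4000B scanner. Before scanning, a 2% BSA-blocked custom Agilent array made double-stranded with Cy5-dUTP was washed after 1 h at 25 °C with 200 nM protein and 50 µM zinc acetate. The proteins were Ni–NTA-purified transcription factors with N-terminal polyhistidine and DsRed fusions, expressed in E. coli BL21-CodonPlus.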
row,Sequence,binding signal
1,TTTTCGCCGTTCTTTCCGGTTATTTTGCCATCGCCTTTTTCGGAGTCACCTAGTGCAG,12600 fluorescence intensity (a.u.)
2,GCCCTGCTTCTCCTTCTCTGCCTCAACCTACCGCCGAGACCGGAGTCACCTAGTGCAG,13200 fluorescence intensity (a.u.)
3,TTTGCAGCAGCCAGCCTCGGATCGTCGTCTCTCCACCTCTCGGAGTCACCTAGTGCAG,9720 fluorescence intensity (a.u.)
4,AGAGGGTTTTGCTGCCTTTGCGTTGCGGCGTGGAGGGAGACGGAGTCACCTAGTGCAG,8240 fluorescence intensity (a.u.)
5,ATCCTTTCTTACACTTTCATAACTCGTGAAATGCCGAGTTCGGAGTCACCTAGTGCAG,11200 fluorescence intensity (a.u.)
6,ATCGTGAAGACGGGTGCGGTCTAGCTCTACTCCTTCGTTCCGGAGTCACCTAGTGCAG,9800 fluorescence intensity (a.u.)
7,ACGCACGACGCCTCTTCTCCTCTCGCCGTCTCGCGCAATCCGGAGTCACCTAGTGCAG,10500 fluorescence intensity (a.u.)
8,ATAGTTTAGTTGCTATTTGTGCAATTCTTTCCCTAATTATCGGAGTCACCTAGTGCAG,9740 fluorescence intensity (a.u.)
9,GGGACCTTTGACCTGCTTCCTACTTGTGTCGTCCTCGAGCCGGAGTCACCTAGTGCAG,8120 fluorescence intensity (a.u.)
10,CTATGTTTTCTGCCTTCCTATCTTTCATTCAATCCTGTGTCGGAGTCACCTAGTGCAG,8550 fluorescence intensity (a.u.)
11,TGACATTTCTGGATGGCTTTGACTCATTCATTACATTCACCGGAGTCACCTAGTGCAG,8780 fluorescence intensity (a.u.)
12,AGATACGCTTACTTGCTTCGTAGTCTTATTCTTTTTTAAGCGGAGTCACCTAGTGCAG,10600 fluorescence intensity (a.u.)
13,CCACCTTGTTTCTTTCTCTCGTTCTCCTCCTCTCCGTCACCGGAGTCACCTAGTGCAG,8780 fluorescence intensity (a.u.)
14,CTCAACGCTCACGTCGTATCACGTGCCATCCCGCGTCTCCCGGAGTCACCTAGTGCAG,10700 fluorescence intensity (a.u.)
15,AACTCAATCAAACACCACTGGTCTCATAACGCTGCTGTCACGGAGTCACCTAGTGCAG,11600 fluorescence intensity (a.u.)
16,GGATAAGGGGAATTAATTAGGGTAAGTTAATAGGGTTCTACGGAGTCACCTAGTGCAG,10700 fluorescence intensity (a.u.)
17,CCCGACCACTCCCACTATTTGCTGCTCCTCCGTTTCAAAACGGAGTCACCTAGTGCAG,9900 fluorescence intensity (a.u.)
18,ATAGTAGTGATGCCCTGACCCATAGGTCCTACACAATTTTCGGAGTCACCTAGTGCAG,10500 fluorescence intensity (a.u.)
19,TAGTTTCGCTTCACGGTGCATGGTTGATTCGCTGTCGTCTCGGAGTCACCTAGTGCAG,8390 fluorescence intensity (a.u.)
20,TTTATCATTTGTTTTTTCTTCGGTACCTCGACTAATTACCCGGAGTCACCTAGTGCAG,8270 fluorescence intensity (a.u.)
21,GTCGTTGTTGCAACCGCGAGCCTCGCTCGTCTCCTCTTCCCGGAGTCACCTAGTGCAG,8320 fluorescence intensity (a.u.)

row,Sequence,binding signal
1,ACCCCGGCCCTATCCCTATGTATGTACACGACGACGACGTCGGAGTCACCTAGTGCAG,14900 fluorescence intensity (a.u.)
2,GGGTTACGGCTGCAAGCTTGTTCTCTCCAGATGGGGAGTTCGGAGTCACCTAGTGCAG,10400 fluorescence intensity (a.u.)
3,CAGGCAGGGCAGGGAAGGGCGTTGGTGGTTCATCTCCTCTCGGAGTCACCTAGTGCAG,9900 fluorescence intensity (a.u.)
4,TATTTTTTCGCCTTTTCTGTTCGTGTGTTCGTGGTGGAGTCGGAGTCACCTAGTGCAG,8360 fluorescence intensity (a.u.)
5,TTAAATTAATCTGGGTTTTTTTTTTCTCGTATTCTATTTTCGGAGTCACCTAGTGCAG,8270 fluorescence intensity (a.u.)
6,AAGCGTGAGGGATGTTTAATTGGGCGTAACTGCTCCCGAACGGAGTCACCTAGTGCAG,8160 fluorescence intensity (a.u.)
7,TTTGGTTCCTTTGAGTTTTTGATCTGTTTCATCCAAAATCCGGAGTCACCTAGTGCAG,8100 fluorescence intensity (a.u.)
8,CGTTGGATAATCTCTAGTACATGTATATACATTTGGCTCTCGGAGTCACCTAGTGCAG,8220 fluorescence intensity (a.u.)
9,TAGTTGGTCTATCTCTATATAAGCTCACACAAATCTGATCCGGAGTCACCTAGTGCAG,9030 fluorescence intensity (a.u.)
10,TATATATATATATACCCCTGAGACTCAATACAACGTGTCCCGGAGTCACCTAGTGCAG,9910 fluorescence intensity (a.u.)
11,AGTCACGTCACCTTTTCACGTGGGACCCACCTGGAAAACCCGGAGTCACCTAGTGCAG,9820 fluorescence intensity (a.u.)
12,GACACTTTAATTTCCTCATCCTTGTGGCATCATTTTTGCACGGAGTCACCTAGTGCAG,12200 fluorescence intensity (a.u.)
13,CGCGCCATCTCCATGTCATCGTCGTCGTCTGTGTCCCCTTCGGAGTCACCTAGTGCAG,10700 fluorescence intensity (a.u.)
14,TGGGTAAAACATGGGCACTCATTAGCCACCTCCATGCTTTCGGAGTCACCTAGTGCAG,8190 fluorescence intensity (a.u.)
15,ATTTAAGTATAAAATTTTGACTAGTCCTTACATGAAACGTCGGAGTCACCTAGTGCAG,9640 fluorescence intensity (a.u.)
16,ACTGATCAGCTCCTATATTGTACCGTAACAATCCATGTCACGGAGTCACCTAGTGCAG,8240 fluorescence intensity (a.u.)
17,TCTCCGACCAGGACCTCAACCCGGGCGCCTACCGACTCATCGGAGTCACCTAGTGCAG,8760 fluorescence intensity (a.u.)
18,CCTTTGTGGTCTGTTCTGTGTTATTCATTTTTCGGAGTTCCGGAGTCACCTAGTGCAG,8520 fluorescence intensity (a.u.)
19,CTTTTCTCCCTTCCACTTGCCGCTGTTGTTTACTCTTTCCCGGAGTCACCTAGTGCAG,9800 fluorescence intensity (a.u.)
20,GGGATGGATGTGCTGGGTTGGTGGCTGGTTGGCTGGCCGGCGGAGTCACCTAGTGCAG,11000 fluorescence intensity (a.u.)
21,AGTTGAGAGATCCGTTGTATCTGGTTTTTCGGTTGAGGGACGGAGTCACCTAGTGCAG,8390 fluorescence intensity (a.u.)

# A second format for some results above:
row	Sequence	binding signal
3	TTTGCAGCAGCCAGCCTCGGATCGTCGTCTCTCCACCTCTCGGAGTCACCTAGTGCAG	9720 fluorescence intensity (a.u.)
1	ACCCCGGCCCTATCCCTATGTATGTACACGACGACGACGTCGGAGTCACCTAGTGCAG	14900 fluorescence intensity (a.u.)
19	CTTTTCTCCCTTCCACTTGCCGCTGTTGTTTACTCTTTCCCGGAGTCACCTAGTGCAG	9800 fluorescence intensity (a.u.)
